Measured data: PubChem BioAssay AID504791 (Drosophila RNAi Screening Center, 2011)

Purpose: 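Genes of the fly required for silencing by miRNA, siRNA or endo-siRNA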 (primary screen)
Cells: Drosophila S2-derived reporter cells
Reagents: long dsRNA against Drosophila genes, about 150-250 ng dsRNA per well (siRNA assay); about 80-120 ng (miRNA assay)
Time to read-out: about 5 days (siRNA assay); about 4 days (miRNA assay)
Treatment: copper sulfate induction of reporters: 25 µM (siRNA assay); 200 mM stated (miRNA assay), 1-2 days before reading
Detection: 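Per-well ratio of Renilla over firefly light, expressed relative to that plate's average ratio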
Units: stable assay Renilla, run 1 in luminescence; stable assay firefly, run 1 in luminescence
Call rule: 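a well was a first-pass pick when its plate-scaled ratio rose above 1.5 (siRNA assay) or 1.6 (miRNA assay), or dropped below 0.6; a gene counted only if two separate dsRNAs agreed on retest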
The screen tested about 23,000 reagents; shown is a random part of those with a known target gene and a result. Over the whole deposit, 199 (0.86%) were called active. 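Plate-scaled ratios behind the calls are not deposited; printed light signals are raw; many rows marked increased or decreased are still called inactive.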 Unmarked entries are inactive. Not stated in the record: the direction of the score.

CG7694 [DRSC16288]
- stable assay Renilla, run 1: 6144
- stable assay firefly, run 1: 3.24e5

dop [DRSC10655]
- stable assay Renilla, run 1: 8503
- stable assay firefly, run 1: 3.49e5

CG42521 [DRSC10154]
- stable assay Renilla, run 1: 6880
- stable assay firefly, run 1: 6.33e5

Dhdds [DRSC17756]
- stable assay Renilla, run 1: 6438
- stable assay firefly, run 1: 3.47e5

Tsp [DRSC02144]
- stable assay Renilla, run 1: 12524
- stable assay firefly, run 1: 5.93e5

Tsp [DRSC02145]
- stable assay Renilla, run 1: 7842
- stable assay firefly, run 1: 4.28e5

Ing5 [DRSC03188]
- stable assay Renilla, run 1: 7007
- stable assay firefly, run 1: 1.43e6

Continued (2 carried over from the part before).
Tsp [DRSC02145]
- stable assay Renilla, run 1: 7842
- stable assay firefly, run 1: 4.28e5

Ing5 [DRSC03188]
- stable assay Renilla, run 1: 7007
- stable assay firefly, run 1: 1.43e6

acs [DRSC08185]
- stable assay Renilla, run 1: 6119
- stable assay firefly, run 1: 4.34e5

Lrp4 [DRSC20118]
- stable assay Renilla, run 1: 8093
- stable assay firefly, run 1: 4.68e5

CG14419 [DRSC17916]
- stable assay Renilla, run 1: 6258
- stable assay firefly, run 1: 3.68e5

CG32773 (retired record) [DRSC17330]
- stable assay Renilla, run 1: 7379
- stable assay firefly, run 1: 3.91e5

CG13599 [DRSC14602]
- stable assay Renilla, run 1: 7839
- stable assay firefly, run 1: 4.37e5
